# From the supplement of paper PMC11237882
# The list shows a part of the results. Values are worked out from sequencing counts and are noisy.
# T1: Homer1 EVH1 domain
# T1 chain: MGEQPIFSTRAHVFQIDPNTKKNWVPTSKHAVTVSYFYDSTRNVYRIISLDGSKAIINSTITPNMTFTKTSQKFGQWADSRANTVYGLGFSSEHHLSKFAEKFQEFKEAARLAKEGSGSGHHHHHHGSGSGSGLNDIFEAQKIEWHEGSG
# Target: T1, Homer1 EVH1 domain
# Assay: enrichment score (AUC of log2 frequency ratio across FACS sorting rounds) (log2 AUC); higher = stronger enrichment for Homer1 EVH1 binding
row,Binder,enrichment score
1,LFLHQLHLGVIGSALANLISQYTLALLLFLYILGKK,2.57
2,APVHFSWVIGVMICCMLNIWGIILYLQLPWIAAQAG,3.52
3,MANINLKEITLIVGVVTACYWNSLFCGFVFDDVSAI,-0.918
4,EYLYCVLFILSGLLFYFLFVHYKFGWAQKISKPITM,1.1
5,NMDEKSQRYLADMFTTCVDIRWRYMLLIFSLAFLAS,2.88
6,MARSLLLPLQILLLSLALETAGEEAQGDKIIDGAPC,2.97
7,EGFQSWMWRGLTFLLPFLFFGHFWQLFNALTLFNLA,1.26
8,TKALGVIQIMVGLMHIGFGIVLCLISFSFREVLGFN,-0.732
9,SGLTAGMLMTDAGRKLYVNTWIYGTLLGCLWVTIKA,0.997
10,PLMTRVVERSSSMTSTMTIGKFMLALAFFAIIIAYF,-3.56
11,HKYEGEPENAVLPLCFVVAVYFMTGPMGFYWRSSPS,-0.0105
12,DGQHIPVLFSIFCGLLVAVSYHLSRQSSDPSVLFSF,2.52
13,MAEQTYSWAYSLVDSSQVSTFLISILLIVYGSFRSL,1.53
14,RGACRIYNSTYLGRAFFGLKVALIFPVLVLLTVFIF,-1.71
15,PDSPQEFLQKKATETILLLVSFFVVMYQMDLSLSSY,1.47
16,VLGMSAVISSVAHYLGLGILAFIGSTEEDDRRLGFV,0.863
17,LFLFIYPITLIGNLLIVLAICSDVRLHNPMYFLLAN,-0.75
18,EANKYFFIESCIALFVSFIINVFVVSVFAEAFFGKT,3
19,MDTPRGIGTFVVWDYVVFAGMLVISAAIGIYYAFAG,1.02
20,SVPYAIVGGILALLVFLIICVLVGMVWCSVRQKGSC,-2.16
21,PRVKTIARGLVGGLKNTLVHRLALIPVYPLRFSRRS,-2.7
22,EAGLALPPTGYRCLECGDAFSLEKSLARHYDRRSMR,5.04

row,Binder,enrichment score
1,KSSVQEILFPLFFLFWLILISMMHPNKKYEEVPNIE,2.25
2,QQIPDVSPTGRYTTLVPLLFILAVAAIKEIIEDIKR,0.534
3,ILQPWIVVNLVVALLVGLSWLFLSYRPGMDLSEELM,3.7
4,SSFLFSLLPFSLSFSPAPYFLFPISLSSLLSFFLPF,-1.04
5,LSQFVIHRSLCISTMQAVFSSVFYFASVPLYQGFLI,1.67
6,RLGTLKGPFRERIRQLMCPAEDLPQRNPAGPSAPAS,-2.53
7,ALCNFAFYGGKSLYHQYIPTFHVYNLFVFLWLINFV,-0.466
8,MRNGTVITEFILLGFPVIQGLQTPLFIAIFLTYILT,1.63
9,FAIGGLVGTLIVKMIGKVLGRKHTLLANNGFAISAA,0.253
10,NTQRKDPYYGADWGIGWWTAVVIMLIVGIITPVFYL,-2.53
11,MLREFSKWGVEASPGKAWERKRSLLRGALGRYRGAT,2.93
12,YICGLLYMIGILFLLIQPCIRIIEQSRRKYMDGAHV,2.54
13,FLVPIAVGAALADVLILVLLAYFIGLKHHHAGYEQF,5.15
14,SSDIIILTITRCIAILYIYFQFQNLRQLGSKYILGI,-1.74
15,GPKHPALKITRRYAFAHILTVLQCATVIGFSYWASE,0.639
16,ELNKKTPLLTEGQAICFTILGVLTSLVVLGTVVITF,3.27
17,LCGSALLLVSLSIAFYCIVYLEWYCGIGEYDVKYPA,1.61
18,SRLPAVRCLALFMGTAVLVHLALTLVWLPASAVLHE,3.55
19,ADMVKTGFIMNIIGVFCVFLAVNTWGRAIFDLDHFP,2.04
20,FIYYHAMIFQSAMFTQGFLFLFLMIWTSFYMVTIFL,-0.293
21,SLPESLELSSPRSPETDWGRPPGGDKDLASPHLGLG,6.29
22,YPPGPLAPPQPFGPGFVPPPPPPPYGPGRIPPPPPA,2.1
